Values of other authors in patent US20150141349A1, “Method and Composition for Alleviating Tumor Symptoms” (Angiogene Pharmaceuticals Ltd., priority 2012, published 2015).
For at least one compound, name, drawing or mass did not settle the structure.

System: carcinoid metastases
Conditions: compared with 55% for hepatic artery embolization; cited from earlier work

Compound: CCN(CC)CCNC(=O)c1c(C)[nH]c(/C=C2\C(=O)Nc3ccc(F)cc32)c1C [sunitinib]
- response rate (Phase II trials): 2%
